Measurements: article PMC3604122
No constants are given. Whether binding was seen depends on the method and setting. Binding seen in cells or lysates may run through a third protein. Binding can be weak; no strength is given.

Amino acid sequences for entries named in this document (tags omitted). A change or cut given only in a name is not applied to a line headed by its entry.
UniProt M4Y9G5: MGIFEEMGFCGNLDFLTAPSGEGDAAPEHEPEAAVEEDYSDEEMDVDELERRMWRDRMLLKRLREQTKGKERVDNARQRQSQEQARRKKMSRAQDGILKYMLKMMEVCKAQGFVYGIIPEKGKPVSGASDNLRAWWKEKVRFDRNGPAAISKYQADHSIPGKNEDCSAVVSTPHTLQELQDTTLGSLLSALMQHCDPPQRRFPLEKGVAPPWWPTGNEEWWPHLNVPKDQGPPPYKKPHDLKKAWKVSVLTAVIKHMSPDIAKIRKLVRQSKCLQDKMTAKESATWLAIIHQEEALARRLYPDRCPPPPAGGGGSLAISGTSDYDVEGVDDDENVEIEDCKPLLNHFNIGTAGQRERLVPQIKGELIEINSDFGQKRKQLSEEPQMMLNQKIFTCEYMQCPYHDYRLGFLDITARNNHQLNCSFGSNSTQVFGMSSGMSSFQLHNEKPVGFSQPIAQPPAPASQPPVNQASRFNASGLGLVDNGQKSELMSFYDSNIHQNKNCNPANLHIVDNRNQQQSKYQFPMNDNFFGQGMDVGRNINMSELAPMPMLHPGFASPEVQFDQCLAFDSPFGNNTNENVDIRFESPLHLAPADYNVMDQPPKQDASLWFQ
UniProt D9ZIM0: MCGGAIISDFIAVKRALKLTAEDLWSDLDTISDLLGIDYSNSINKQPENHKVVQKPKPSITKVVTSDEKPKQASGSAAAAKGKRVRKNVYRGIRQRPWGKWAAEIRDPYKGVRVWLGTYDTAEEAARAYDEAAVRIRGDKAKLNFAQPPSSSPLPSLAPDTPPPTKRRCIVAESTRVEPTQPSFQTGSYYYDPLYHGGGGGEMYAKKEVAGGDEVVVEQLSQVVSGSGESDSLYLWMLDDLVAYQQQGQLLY
UniProt D9ZIM1: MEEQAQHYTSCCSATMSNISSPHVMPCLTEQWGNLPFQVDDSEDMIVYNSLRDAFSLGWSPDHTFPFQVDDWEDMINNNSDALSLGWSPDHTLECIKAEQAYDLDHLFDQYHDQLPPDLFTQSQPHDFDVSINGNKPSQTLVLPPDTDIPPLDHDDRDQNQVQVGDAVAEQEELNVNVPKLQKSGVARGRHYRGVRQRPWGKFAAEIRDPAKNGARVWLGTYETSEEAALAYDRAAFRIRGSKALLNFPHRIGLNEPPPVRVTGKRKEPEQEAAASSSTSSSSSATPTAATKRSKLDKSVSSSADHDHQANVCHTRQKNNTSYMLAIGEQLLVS

Biological target: ZMdEIL2 (apple (Malus x domestica), cultivar 'Taishanzaoxia') (UniProt M4Y9G5)
Test: split reporter; BiFC: X-nYFP and cYFP-X fusions co-infiltrated by Agrobacterium into the same onion epidermis cells, 24°C for 48 h, YFP signal read with a confocal microscope

Substance | binding
ZMdERF1 (from UniProt D9ZIM0) | binds
ZMdERF2 (from UniProt D9ZIM1) | binds
